The list shows a part of the results, in another mix than the full data. At the low end of the ranking, values are background and their order means little. Some of the results follow.
How the values were obtained:
Test in all cases: SELEX-seq (CSI, HT-SELEX, round 3)
Conditions in all cases: SELEX-seq: 1x PBS (10 mM phosphate, 137 mM NaCl, 2.7 mM KCl) pH 7.6, 2.5 mM DTT, 50 ng/ul poly dI-dC, 0.1% BSA, 50 nM biotinylated bZIP (1:3 with partner for …); high values mean tight binding; double strand, one strand shown
MAFB + MAFB = system: MAFB + MAFB
ATF6B + ATF6B = system: ATF6B + ATF6B
CREB1 + CREB1 = system: T1, CREB1 + CREB1
T1 sequence 1: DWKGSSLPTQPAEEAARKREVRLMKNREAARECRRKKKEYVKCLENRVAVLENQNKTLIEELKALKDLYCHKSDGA
T1 sequence 2: T1 sequence 1

CREB3 + CREB3 = system: T2, CREB3 + CREB3
T2 sequence 1: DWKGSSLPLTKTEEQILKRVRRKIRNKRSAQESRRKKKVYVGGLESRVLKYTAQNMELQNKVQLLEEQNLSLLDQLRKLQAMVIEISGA
T2 sequence 2: T2 sequence 1

MAFG + MAFG = system: MAFG + MAFG
MAFB + FOSL1 = system: MAFB + FOSL1
MAFB + ATF5 = system: MAFB + ATF5
CREB3L1 + CREB3L1 = system: T3, CREB3L1 + CREB3L1
T3 sequence 1: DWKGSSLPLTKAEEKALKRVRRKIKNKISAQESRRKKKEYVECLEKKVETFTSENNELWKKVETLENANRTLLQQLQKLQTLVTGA
T3 sequence 2: T3 sequence 1

ATF6 + ATF6 = system: ATF6 + ATF6
ATF5 + ATF6B = system: ATF5 + ATF6B

Sequence | binding signal (relative CSI intensity (max = 1)) (MAFB + MAFB) | binding signal (relative CSI intensity (max = 1)) (ATF6B + ATF6B) | binding signal (relative CSI intensity (max = 1)) (CREB1 + CREB1) | binding signal (relative CSI intensity (max = 1)) (CREB3 + CREB3) | binding signal (relative CSI intensity (max = 1)) (MAFG + MAFG) | binding signal (relative CSI intensity (max = 1)) (MAFB + FOSL1) | binding signal (relative CSI intensity (max = 1)) (MAFB + ATF5) | binding signal (relative CSI intensity (max = 1)) (CREB3L1 + CREB3L1) | binding signal (relative CSI intensity (max = 1)) (ATF6 + ATF6) | binding signal (relative CSI intensity (max = 1)) (ATF5 + ATF6B)
ATGACGTCAT | 7.73e-05 | 0.0846 | 0.577 | 0.325 | – | – | – | – | – | –
ATGACGGAAT | -0.000156 | -2.27e-05 | 6.15e-05 | -0.00282 | 0.00454 | -5.39e-05 | 0.000305 | -0.000197 | -6.75e-05 | -0.0011
ATGACGTAAT | -9.67e-05 | – | 0.00977 | – | – | – | – | 0.000769 | – | –
CCTGACGTCA | -0.000208 | – | – | – | -0.00283 | – | – | 7.6e-05 | – | –
ATGATGCAAT | -2.19e-05 | -0.000145 | 6.41e-05 | -0.00583 | – | – | – | -6.68e-05 | 0.000181 | –
ATGACGCAAT | -7.64e-05 | 0.00034 | 0.000887 | – | 0.000738 | – | – | 0.000144 | – | –

From PMC5349851
